# Laboratory results: publication PMC12378234, “Enzyme-mediated aminoglycoside resistance without target mimicry” (Communications Chemistry, 2025)
# Where “and” joins values, the source holds several entries; their conditions need not be identical. Equal values may be shown once. Read-outs that look alike come from different tables or passages of the source. Further values from the same series stand in other lists.
# Test system: BL21(DE3) E. coli transformed with pUCP18 vector expressing untagged AAC(3)-Ia
# Format: cell-based
# Description: Ten milliliters of LB containing […] ampicillin were inoculated from glycerol stocks of transformed BL21(DE3) E. coli containing genes expressing the proteins of interest in pUCP18 vectors. These cultures were incubated at 37 °C with 200 rpm agitation for 16 h. Turbidity was measured through OD600 with a NanoDrop OneC Spectrometer (Thermo Scientific). From the initial cultures, secondary 10 mL cultures were prepared with OD600 values of 0.1. These cultures were grown until OD600 values of 0.4–0.6 were reached and diluted to bring all cultures to the same OD600. Cultures were induced with 1 mM Isopropyl β-D-1-thiogalactopyranoside and incubated for 4 h. Two microliters of culture was added to 198 μL of LB with an appropriate aminoglycoside titration concentration. Each titration point was repeated n = 4 times. The formulated 96-well culture plate (Sarstedt) had OD600 measured on a 20-min interval over 17 h using a BioTek Cytation 5 Cell Imaging Multimode Reader, incubating at 37 °C with 282 cpm orbital agitation. Experiments were repeated with fresh cultures on separate days to ensure consistent trends. Data was analyzed in Microsoft Excel and GraphPad5. The remainder of the culture immediately had its RNA isolated for qPCR experiments.
structure (smiles),measurement,setting,value
"CN[C@@H]1[C@@H](O)[C@@H](O[C@@H]2[C@@H](O)[C@H](O[C@H]3OC(CN)=CC[C@H]3N)[C@@H](N)C[C@H]2N)OC[C@]1(C)O [Sisomicin, sisomicin]",OD600 growth curve,"3 ug/mL Sisomicin, time point 00:19:10",0.104 and 0.102 and 0.1
same,OD600 growth curve,"3 ug/mL Sisomicin, time point 00:39:10",0.109 and 0.105 and 0.103
same,OD600 growth curve,"3 ug/mL Sisomicin, time point 00:59:10",0.118 and 0.112 and 0.109
same,OD600 growth curve,"3 ug/mL Sisomicin, time point 01:19:10",0.133 and 0.121 and 0.117
same,OD600 growth curve,"3 ug/mL Sisomicin, time point 01:39:10",0.154 and 0.133 and 0.13 and 0.127
same,OD600 growth curve,"3 ug/mL Sisomicin, time point 01:59:10",0.187 and 0.151 and 0.147 and 0.144
same,OD600 growth curve,"3 ug/mL Sisomicin, time point 02:19:10",0.226 and 0.175 and 0.172 and 0.168
same,OD600 growth curve,"3 ug/mL Sisomicin, time point 02:39:10",0.278 and 0.207 and 0.205 and 0.201
same,OD600 growth curve,"3 ug/mL Sisomicin, time point 02:59:10",0.334 and 0.242 and 0.246 and 0.234
same,OD600 growth curve,"3 ug/mL Sisomicin, time point 03:19:10",0.376 and 0.263 and 0.279
same,OD600 growth curve,"3 ug/mL Sisomicin, time point 03:39:10",0.405 and 0.276 and 0.305 and 0.284
same,OD600 growth curve,"3 ug/mL Sisomicin, time point 03:59:10",0.431 and 0.299 and 0.329 and 0.307
same,OD600 growth curve,"3 ug/mL Sisomicin, time point 04:19:10",0.449 and 0.314 and 0.343 and 0.319
same,OD600 growth curve,"3 ug/mL Sisomicin, time point 04:39:10",0.486 and 0.337 and 0.37 and 0.346
same,OD600 growth curve,"3 ug/mL Sisomicin, time point 04:59:10",0.522 and 0.361 and 0.398 and 0.374
same,OD600 growth curve,"3 ug/mL Sisomicin, time point 05:19:10",0.545 and 0.382 and 0.421 and 0.396
same,OD600 growth curve,"3 ug/mL Sisomicin, time point 05:39:10",0.571 and 0.402 and 0.44 and 0.415
same,OD600 growth curve,"3 ug/mL Sisomicin, time point 05:59:10",0.593 and 0.417 and 0.458 and 0.434
same,OD600 growth curve,"3 ug/mL Sisomicin, time point 06:19:10",0.617 and 0.428 and 0.476 and 0.447
same,OD600 growth curve,"3 ug/mL Sisomicin, time point 06:39:10",0.626 and 0.435 and 0.485 and 0.455
same,OD600 growth curve,"3 ug/mL Sisomicin, time point 06:59:10",0.631 and 0.443 and 0.495 and 0.461
same,OD600 growth curve,"3 ug/mL Sisomicin, time point 07:19:10",0.636 and 0.449 and 0.503 and 0.471
same,OD600 growth curve,"3 ug/mL Sisomicin, time point 07:39:10",0.64 and 0.455 and 0.514 and 0.479
same,OD600 growth curve,"3 ug/mL Sisomicin, time point 07:59:10",0.638 and 0.463 and 0.525 and 0.485
same,OD600 growth curve,"3 ug/mL Sisomicin, time point 08:19:10",0.639 and 0.469 and 0.531 and 0.496
same,OD600 growth curve,"3 ug/mL Sisomicin, time point 08:39:10",0.637 and 0.474 and 0.534 and 0.503
same,OD600 growth curve,"3 ug/mL Sisomicin, time point 08:59:10",0.638 and 0.488 and 0.54 and 0.519
same,OD600 growth curve,"3 ug/mL Sisomicin, time point 09:19:10",0.638 and 0.503 and 0.542 and 0.522
same,OD600 growth curve,"3 ug/mL Sisomicin, time point 09:39:10",0.634 and 0.509 and 0.545 and 0.521
same,OD600 growth curve,"3 ug/mL Sisomicin, time point 09:59:10",0.629 and 0.507 and 0.543 and 0.517
same,OD600 growth curve,"3 ug/mL Sisomicin, time point 10:19:10",0.623 and 0.506 and 0.541 and 0.515
same,OD600 growth curve,"3 ug/mL Sisomicin, time point 10:39:10",0.62 and 0.505 and 0.539 and 0.512
same,OD600 growth curve,"3 ug/mL Sisomicin, time point 10:59:10",0.617 and 0.504 and 0.536 and 0.51
same,OD600 growth curve,"3 ug/mL Sisomicin, time point 11:19:10",0.612 and 0.503 and 0.535 and 0.507
same,OD600 growth curve,"3 ug/mL Sisomicin, time point 11:39:10",0.61 and 0.502 and 0.532 and 0.508
same,OD600 growth curve,"3 ug/mL Sisomicin, time point 11:59:10",0.606 and 0.501 and 0.53 and 0.507
same,OD600 growth curve,"3 ug/mL Sisomicin, time point 12:19:10",0.603 and 0.5 and 0.527 and 0.505
same,OD600 growth curve,"3 ug/mL Sisomicin, time point 12:39:10",0.604 and 0.5 and 0.526 and 0.503
same,OD600 growth curve,"3 ug/mL Sisomicin, time point 12:59:10",0.601 and 0.499 and 0.523 and 0.502
same,OD600 growth curve,"6 ug/mL Sisomicin, time point 00:19:10",0.1 and 0.098 and 0.101 and 0.104
same,OD600 growth curve,"6 ug/mL Sisomicin, time point 00:39:10",0.102 and 0.1 and 0.103 and 0.106
same,OD600 growth curve,"6 ug/mL Sisomicin, time point 00:59:10",0.103 and 0.1 and 0.105 and 0.108
same,OD600 growth curve,"6 ug/mL Sisomicin, time point 01:19:10",0.103 and 0.1 and 0.106 and 0.11
same,OD600 growth curve,"6 ug/mL Sisomicin, time point 01:39:10",0.103 and 0.1 and 0.106 and 0.109
same,OD600 growth curve,"6 ug/mL Sisomicin, time point 01:59:10",0.103 and 0.1 and 0.105 and 0.11
same,OD600 growth curve,"6 ug/mL Sisomicin, time point 02:19:10",0.103 and 0.1 and 0.105 and 0.111
same,OD600 growth curve,"6 ug/mL Sisomicin, time point 02:39:10",0.102 and 0.1 and 0.105 and 0.111
same,OD600 growth curve,"6 ug/mL Sisomicin, time point 02:59:10",0.102 and 0.101 and 0.106 and 0.112
same,OD600 growth curve,"6 ug/mL Sisomicin, time point 03:19:10",0.102 and 0.101 and 0.107 and 0.112
same,OD600 growth curve,"6 ug/mL Sisomicin, time point 03:39:10",0.102 and 0.109 and 0.113
same,OD600 growth curve,"6 ug/mL Sisomicin, time point 03:59:10",0.103 and 0.104 and 0.11 and 0.114
same,OD600 growth curve,"6 ug/mL Sisomicin, time point 04:19:10",0.103 and 0.105 and 0.113 and 0.115
same,OD600 growth curve,"6 ug/mL Sisomicin, time point 04:39:10",0.103 and 0.107 and 0.114 and 0.116
same,OD600 growth curve,"6 ug/mL Sisomicin, time point 04:59:10",0.104 and 0.108 and 0.115 and 0.117
same,OD600 growth curve,"6 ug/mL Sisomicin, time point 05:19:10",0.105 and 0.11 and 0.116 and 0.117
same,OD600 growth curve,"6 ug/mL Sisomicin, time point 05:39:10",0.105 and 0.111 and 0.117 and 0.118
same,OD600 growth curve,"6 ug/mL Sisomicin, time point 05:59:10",0.105 and 0.112 and 0.118 and 0.119
same,OD600 growth curve,"6 ug/mL Sisomicin, time point 06:19:10",0.106 and 0.112 and 0.119
